Data taken from PMC12661400, “Oral bioavailable ITRI-148 degrades androgen receptor variants and overcomes antiandrogen resistance in advanced prostate cancer” (Neoplasia (New York, N.Y.), 2025).

Test system: LNCaP
Test: MTT cell viability, 7 days
Format: cell-based
Conditions: Homo sapiens, 168 h
Protocol: Cells were seeded in 96-well plates and treated with drugs the next day. After 7 days, viability was assessed using MTT assay.
(C) Western blot analysis of AR and AR-V7 in C4-2B and C4-2B/MDVR cells after 48-hour ITRI-148 treatment. […] DEGs were determined relative to DMSO or pLKO.1 vector control. […] RPL13A was used for normalization. […] AR, AR-V7, and PSA expression in the drug-treated cells were detected across treatment timepoints.

SMILES: CNC(=O)c1ccc(N2C(=S)N(c3ccc(C#N)c(C(F)(F)F)c3)C(=O)C2(C)C)cc1F [Enza, enzalutamide]
- IC50: 410 nM
